Laboratory results from PMC3870133.
Where two headings read alike, the source gives them in different places. No constants are given. Whether binding was seen depends on the method and setting. In cells and extracts the contact can be indirect. A yes stands for co-enrichment or nearness to the bait. Other partners may have been found. A no says only that the protein was not detected with the bait. Each block holds one molecule with its values, some of them ahead of it.

Amino acid sequences for entries named in this document (tags omitted). A change or cut given only in a name is not applied to a line headed by its entry.
UniProt P30561: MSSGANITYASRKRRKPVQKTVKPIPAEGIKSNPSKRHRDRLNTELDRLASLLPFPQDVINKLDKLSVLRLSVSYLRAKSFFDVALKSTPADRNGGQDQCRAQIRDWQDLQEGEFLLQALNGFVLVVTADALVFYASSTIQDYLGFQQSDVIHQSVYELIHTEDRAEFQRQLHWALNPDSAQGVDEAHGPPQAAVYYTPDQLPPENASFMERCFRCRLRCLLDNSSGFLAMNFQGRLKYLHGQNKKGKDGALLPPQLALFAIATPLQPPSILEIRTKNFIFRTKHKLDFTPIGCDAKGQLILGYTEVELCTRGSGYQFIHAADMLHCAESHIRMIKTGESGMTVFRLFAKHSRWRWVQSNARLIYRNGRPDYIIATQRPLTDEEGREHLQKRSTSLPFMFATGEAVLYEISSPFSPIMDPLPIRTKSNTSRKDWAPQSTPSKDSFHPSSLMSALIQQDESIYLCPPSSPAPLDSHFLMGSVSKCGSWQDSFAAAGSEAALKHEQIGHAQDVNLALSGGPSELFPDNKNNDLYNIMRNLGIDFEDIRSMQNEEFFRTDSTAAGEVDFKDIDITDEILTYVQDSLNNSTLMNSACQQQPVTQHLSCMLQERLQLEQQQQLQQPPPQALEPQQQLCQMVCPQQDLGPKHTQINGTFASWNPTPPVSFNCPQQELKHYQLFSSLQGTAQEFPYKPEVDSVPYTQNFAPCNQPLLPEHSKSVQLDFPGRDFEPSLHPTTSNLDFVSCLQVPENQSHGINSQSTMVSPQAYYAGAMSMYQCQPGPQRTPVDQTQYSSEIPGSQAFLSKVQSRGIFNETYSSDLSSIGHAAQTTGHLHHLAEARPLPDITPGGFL
UniProt Q7SIG6: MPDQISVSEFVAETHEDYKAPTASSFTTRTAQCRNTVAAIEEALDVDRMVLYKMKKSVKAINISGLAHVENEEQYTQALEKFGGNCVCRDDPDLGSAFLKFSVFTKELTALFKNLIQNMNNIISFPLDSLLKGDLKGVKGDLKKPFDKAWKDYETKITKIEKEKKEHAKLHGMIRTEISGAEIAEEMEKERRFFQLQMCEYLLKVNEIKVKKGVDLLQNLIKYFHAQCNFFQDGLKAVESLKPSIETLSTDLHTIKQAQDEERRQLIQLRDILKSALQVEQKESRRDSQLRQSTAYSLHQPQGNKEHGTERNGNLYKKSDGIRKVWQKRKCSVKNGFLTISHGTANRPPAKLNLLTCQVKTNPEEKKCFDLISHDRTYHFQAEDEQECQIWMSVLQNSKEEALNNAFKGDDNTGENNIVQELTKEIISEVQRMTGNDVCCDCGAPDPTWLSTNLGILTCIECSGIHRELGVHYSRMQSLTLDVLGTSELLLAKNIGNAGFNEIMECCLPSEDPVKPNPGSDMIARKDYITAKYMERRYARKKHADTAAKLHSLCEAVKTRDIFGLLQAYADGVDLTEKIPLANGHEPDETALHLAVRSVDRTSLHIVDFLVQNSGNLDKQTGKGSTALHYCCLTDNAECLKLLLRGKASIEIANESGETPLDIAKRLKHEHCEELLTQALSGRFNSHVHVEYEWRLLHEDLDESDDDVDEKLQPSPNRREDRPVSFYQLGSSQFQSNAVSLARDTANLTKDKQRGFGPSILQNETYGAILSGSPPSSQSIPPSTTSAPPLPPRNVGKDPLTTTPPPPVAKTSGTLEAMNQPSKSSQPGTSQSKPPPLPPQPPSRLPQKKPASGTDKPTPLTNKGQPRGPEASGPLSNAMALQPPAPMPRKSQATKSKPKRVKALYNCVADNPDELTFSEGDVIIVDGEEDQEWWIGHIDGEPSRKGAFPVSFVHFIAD
UniProt Q04207: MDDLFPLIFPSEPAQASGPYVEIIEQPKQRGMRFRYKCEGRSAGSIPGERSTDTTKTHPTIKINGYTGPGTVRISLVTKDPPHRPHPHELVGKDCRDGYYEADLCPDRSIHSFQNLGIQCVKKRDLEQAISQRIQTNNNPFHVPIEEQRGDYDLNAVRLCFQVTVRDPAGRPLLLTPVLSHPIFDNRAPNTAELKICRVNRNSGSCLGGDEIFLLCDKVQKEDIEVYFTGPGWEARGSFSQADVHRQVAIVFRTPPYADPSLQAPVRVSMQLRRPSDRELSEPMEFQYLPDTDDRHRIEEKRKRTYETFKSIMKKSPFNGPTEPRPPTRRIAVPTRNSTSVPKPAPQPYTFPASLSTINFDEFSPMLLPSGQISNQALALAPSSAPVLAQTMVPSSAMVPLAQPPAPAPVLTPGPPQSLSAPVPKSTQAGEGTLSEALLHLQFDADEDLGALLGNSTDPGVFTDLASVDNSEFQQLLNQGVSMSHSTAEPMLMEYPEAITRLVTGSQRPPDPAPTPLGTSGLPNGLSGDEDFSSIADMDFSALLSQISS

Legend:
[1] = target: AHR-TAP (murine aryl-hydrocarbon receptor with C-terminal TAP tag) (murine) (UniProt P30561); test: affinity purification with mass spectrometry; AHR-TAP as bait from lysate of stable Hepa1c1c7 cells treated with DMSO (0.01%) or TCDD (10 nM; 30, 120 or 240 min); IgG Sepharose, AcTEV cleavage, calmodulin resin, 4°C; eluate separated on gel, bands digested and analysed by LC-MS/MS; GFP-TAP as negative control; 3 independent experiments
[2] = target: AHR-TAP (murine aryl-hydrocarbon receptor with C-terminal TAP tag) (murine) (UniProt P30561); test: as above; remark: listed apart in the source

Molecule: ArfGAP with SH3 domain, ankyrin repeat and PH domain 2 (Asap2) (from UniProt Q7SIG6 1-958)
binding [1]: binds

B1: Enhancer-trap-locus-1 (Smarcad SWI/SNF-related) (protein, UniProt Q04692 1-1021)
chain: MNLFNLDRFRFEKRSKIEEAPEAAPQPSQARPSSPISLSAEEENAEGEGSRANTPDSDVTEKTEDSSVPEPPDNERKASLSCFQNQRAIQEYIDLSSDTEDVSPNCSSTVQEKKFSKDTVIIVSEPSEDEESHDLPSVTRRNDSSELEDLSELEDLKDAKLQTLKELFPQRSDSDLLKLIESTSTMDGAIAAALLMFGDAGGGPRKRKLSSSSEEDDVNDDQSVKQPRGDRGEESNESAEASSNWEKQESIVLKLQKEFPNFDKQELREVLKEHEWMYTEALESLKVFAEDQDVQCASQSEVTNGKEVARNQNYSKNATKIKMKQKISVKPQNGFNKKRKKNVFNPKKAVEDSEYDSGSDAGSSLDEDYSSCEEVMEDGYKGKILHFLQVSSIAELTLIPKCSQKKAQKITELRPFNNWEALFTKMSKINGLSEDLIWNCKTVIQERDVVIRLMNKCEDISNKLTKQVTMLTGNGGGWNREQPSLLNQSLSLKPYQKVGLNWLALVHKHGLNGILADEMGLGKTIQAIAFLAYLFQEGNKGPHLIVVPASTIDNWLREVNLWCPSLNVLCYYGSQEERKQIRFNIHNKYEDYNVIVTTYNCAISSSDDRSLFRRLKLNYAIFDEGHMLKNMGSIRYQHLMTINARNRLLLTGTPVQNNLLELMSLLNFVMPHMFSSSTSEIRRMFSSKTKPADEQSIYEKERIAHAKQIIKPFILRRVKEEVLKLLPPKKDRIELCAMSEKQEQLYSGLFNRLKKSINNLEKNTEMCNVMMQLRKMANHPLLHRQYYTPEKLKEMSQLMLKEPTHCEANPDLIFEDMEVMTDFELHVLCKQYQHINSYQLDMDLILDSGKFRALGCILSELKQKGDRVVLFSQFTMMLDILEVLLKHHQHRYLRLDGKTQISERIHLIDEFNTDMDIFVFLLSTKAGGLGINLTSANVVILHDIDCNPYNDKQAEDRCHRVGQTKEVLVIKLISQGTIEESMLKINQQKLKLEQDMTTVDEADEGSMPADIATLLKTSMGL
binding [2]: binds

B4: cAMP responsive element binding protein 3-like 3 (Creb3l3) (protein, UniProt Q91XE9 1-479)
chain: MDGDIAAGKMASPVCAMAPLDSMEVLDLLFDRQDGILRNVELAEGWILAREEQKVLLNSDSDEFLNCILGPGDSDPSSPLWSPADSDSGISEDLPSDPQDTPPRSGTEPANTVARCHTREQGKGPCPSYLPSTPCPEPPRTQVQESSVAIDLDMWSTDTLYPEEPAGSPSRFNLTVKELLLSGGSGDLQQHSLAASQLLGPGSGHCQELVLTEDEKKLLAKEGVTLPTQLPLTKYEERVLKKIRRKIRNKQSAQESRKKKKEYIDGLENRMSACTAQNQELQRKVLHLEKQNLSLLEQLKHLQALVVQSTSKPAHAGTCIAVLLLSFALIILPSISPFNSNKVDSPGDFVPVRVFSRTLHNHAASRVAPDVTPGSEVPGPWPDVGTPHKGPSSGGLSADWGNFLEIPMLDNLTEELDNSTLVLANSTEDLGRATLLDWVASEPLLSPGRVGLEIPGEMWLSWVPRWLRVRLVQDALGVL
binding [2]: binds

B5: cardiotrophin-like cytokine factor 1 (Clcf1) (protein, UniProt Q9QZM3 28-225)
chain: LNRTGDPGPGPSIQKTYDLTRYLEHQLRSLAGTYLNYLGPPFNEPDFNPPRLGAETLPRATVNLEVWRSLNDRLRLTQNYEAYSHLLCYLRGLNRQAATAELRRSLAHFCTSLQGLLGSIAGVMATLGYPLPQPLPGTEPAWAPGPAHSDFLQKMDDFWLLKELQTWLWRSAKDFNRLKKKMQPPAASVTLHLEAHGF
binding [2]: binds

B6: retinoblastoma protein (Rb) (protein, UniProt P13405 1-921)
chain: MPPKAPRRAAAAEPPPPPPPPPREDDPAQDSGPEELPLARLEFEEIEEPEFIALCQKLKVPDHVRERAWLTWEKVSSVDGILEGYIQKKKELWGICIFIAAVDLDEMPFTFTELQKSIETSVYKFFDLLKEIDTSTKVDNAMSRLLKKYNVLCALYSKLERTCELIYLTQPSSALSTEINSMLVLKISWITFLLAKGEVLQMEDDLVISFQLMLCVVDYFIKFSPPALLREPYKTAAIPINGSPRTPRRGQNRSARIAKQLENDTRIIEVLCKEHECNIDEVKNVYFKNFIPFINSLGIVSSNGLPEVESLSKRYEEVYLKNKDLDARLFLDHDKTLQTDPIDSFETERTPRKNNPDEEANVVTPHTPVRTVMNTIQQLMVILNSASDQPSENLISYFNNCTVNPKENILKRVKDVGHIFKEKFANAVGQGCVDIGVQRYKLGVRLYYRVMESMLKSEEERLSIQNFSKLLNDNIFHMSLLACALEVVMATYSRSTLQHLDSGTDLSFPWILNVLNLKAFDFYKVIESFIKVEANLTREMIKHLERCEHRIMESLAWLSDSPLFDLIKQSKDGEGPDNLEPACPLSLPLQGNHTAADMYLSPLRSPKKRTSTTRVNSAANTETQAASAFHTQKPLKSTSLALFYKKVYRLAYLRLNTLCARLLSDHPELEHIIWTLFQHTLQNEYELMRDRHLDQIMMCSMYGICKVKNIDLKFKIIVTAYKDLPHAAQETFKRVLIREEEFDSIIVFYNSVFMQRLKTNILQYASTRPPTLSPIPHIPRSPYKFSSSPLRIPGGNIYISPLKSPYKISEGLPTPTKMTPRSRILVSIGESFGTSEKFQKINQMVCNSDRVLKRSAEGGNPPKPLKKLRFDIEGADEADGSKHLPAESKFQQKLAEMTSTRTRMQKQRMNESKDVSNKEEK
binding [2]: no binding

B7: HIV TAT specific factor 1 (Htatsf1) (protein, UniProt Q8BGC0 1-757)
chain: MSGNNLSGNDEFDEQLRMQELYGGDPKEGDTQNEPSGEAHSLGQPPDDTPYEWDLDKKAWFPKITEDFIATYQANYGFSSDGASSSTANVQDANTKAVEEPPQKEVPETPDSKRKGEKRKAESGWFHVEEDRNTNVYVSGLPPDITVDEFIQLMSKFGIIMRDPQTEEFKVKLYKDDQGNLKGDGLCCYLKKESVELALKLLDEDEIRGYKLHVEVAKFQLKGEYDASKKKKKCKDYKKKLSLQQKQLDWRPERRAGPNRLRHERVVILKNMFHPMDFEDDPLVLNEIREDLRVECSKFGQIRKLLLFDRHPDGVASVSFREPEEADHCIQTLDGRWFGGRQITAQAWDGTTDYQVEETSREREERLRGWEAFLNAPEASRGLRRMDSIAGSERPGPSRMRHFSEHPSMSNMKAQEATTGMAFEETIDENKFEKAEEGGESEGDASEKDAKEGGSDGDHPEREGGEGCSKKENEEGCPERALEPEEGNPQTEAQENGPEREARKKSKMDYEKNGFSKESEDNDLGKESEGEDSLKKESEDDDSEEESEEDSSEKQSQDGSDKEIEENGVKKDVDQDVSDKEFPEDVEKESEENETDKSEFDEGSERVLDEEGSEREFEEDSDEKEEEGDDDEEEVVYERVFDDDSDDIEEEEEADEKECEDADDKEEDNDIDEKLFDDSDEKEDEEDTDGKKDDDASDKVFEDNSNEKLFDEEEGPNEKLFDDSDERGTVGNVKEDGSQSTDSSFALSSSDDDDDEV
binding [2]: binds

B9: activated leukocyte cell adhesion molecule CD166 (Alcam) (protein, UniProt Q61490 28-583)
chain: WYTVNSAYGDTIVMPCRLDVPQNLMFGKWKYEKPDGSPVFIAFRSSTKKSVQYDDVPEYKDRLSLSENYTLSIANAKISDEKRFVCMLVTEDNVFEAPTLVKVFKQPSKPEIVNKAPFLETDQLKKLGDCISRDSYPDGNITWYRNGKVLQPVEGEVAILFKKEIDPGTQLYTVTSSLEYKTTRSDIQMPFTCSVTYYGPSGQKTIYSEQEIFDIYYPTEQVTIQVLPPKNAIKEGDNITLQCLGNGNPPPEEFMFYLPGQPEGIRSSNTYTLTDVRRNATGDYKCSLIDKRNMAASTTITVHYLDLSLNPSGEVTKQIGDTLPVSCTISASRNATVVWMKDNIRLRSSPSFSSLHYQDAGNYVCETALQEVEGLKKRESLTLIVEGKPQIKMTKKTDPSGLSKTIICHVEGFPKPAIHWTITGSGSVINQTEESPYINGRYYSKIIISPEENVTLTCTAENQLERTVNSLNVSAISIPEHDEADDISDENREKVNDQAKLIVGIVVGLLLAALVAGVVYWLYMKKSKTASKHVNKDLGNMEENKKLEENNHKTEA
binding [2]: binds

The remaining lines, values ahead:

binding [1]: no binding
Molecule: RelA of the NFκB complex (from UniProt Q04207 1-549)

binding [2]: binds
B2: ubiquitin associated protein 2-like (Ubap2l) (protein, UniProt Q80X50 1-1107)
chain: MMTSVGTNRARGNWEQPQNQNQTQHKQRPQATAEQIRLAQMISDHNDADFEEKVKQLIDITGKNQDECVIALHDCNGDVNRAINVLLEGNPDTHSWEMVGKKKGVSGQKDGGQTESNEEGKENRDRDRDYSRRRGGPPRRGRGASRGREFRGQENGLDGTKSGGPSGRGTDRGRRGRGRGRGSSGRRGGRFSAQGMGTFNPADYAEPANTDDNYGNSSGNTWNNTGHFEPDDGTRLDFIGVEGSNYPRKFETAPGAWRTATEEWGTEDWNEDLSETKIFTASNVSSVPLPAENVTITAGQRIDLAVLLGKTPSSMENDSSNLDPSQAPSLAQPLVFSNSKQNAISQPASGSTFSHHSMVSMLGKGFGDVGEAKGGSTTGSQFLEQFKTAQALAQLAAQHSQSGSTTTSSWDMGSTTQSPSLVQYDLKSANDSTVHSPFTKRQAFTPSSTMMEVFLQEKPPAVATSTAAPPPPSSPLPSKSTSAPQMSPGSSDNQSSSPQPAQQKLKQQKKKTSLTSKIPALAVEMPGSADISGLNLQFGALQFGSEPVLSDYESTPTTSASSSQAPSSLYTSTASESSSTVSSNQSQESGYQSGPIQSTTYTSQNNAQGPLYEQRSTQTRRYPSSISSSPQKDLTQAKNGFSSVQATQLQTTQSVEGATGSAVKSESPSTSSIPSLNETVPAASLLTTANQHSSSLSGLSHTEEIPNTTTTQHSSALSTQQNTLSSSTSSGRTSTSTLLHTSVESEANLHSSSSTFSTTSSTVSAPPPVVSVSSSLNSGSSLGLSLGSNSTVTASTRSSVATTSGKAPPNLPPGVPPLLPNPYIMAPGLLHAYPPQVYGYDDLQMLQTRFPLDYYSIPFPTPTTPLTGRDGSLASNPYSGDLTKFGRGDASSPAPATTLAQPQQNQTQTHHTTQQTFLNPALPPGYSYTSLPYYTGVPGLPSTFQYGPAVFPVAPTSSKQHGVNVSVNASATPFQQPSGYGSHGYNTGVSVTSSNTGVPDISGSVYSKTQQSFEKQGFHSGTPAASFNLPSALGSGGPINPATAAAYPPAPFMHILTPHQQPHSQILHHHLQQDGQTGSGQRSQTSSIPQKPQTNKSAYNSYSWGAN

binding [2]: binds
B3: mitochondrial ribosomal protein L40 (Mrpl40) (protein, UniProt Q9Z2Q5 47-206)
chain: AEPLRKKKKVDPRKDQAAKDRLKKRIRKLEKASQELIPIEDFITPVRFLDKSRQRPQEEHSPEESERRALLLKRWALFKQQEHEMERDAIRSMLEAQQEALEELKLESAELYAEAIKRDTSLFPFEKEGPHYTPPISNYQAPEGRYNDITKVYTQVEFKR

binding [2]: binds
B8: aryl-hydrocarbon receptor-interacting protein (AIP) (protein, UniProt O08915 1-330)
chain: MADLIARLREDGIQKRVIQEGRGELPDFQDGTKATFHFRTLHSDNEGSVIDDSRTRGKPMELIVGKKFKLPVWETIVCTMREGEIAQFLCDIKHVVLYPLVAKSLRNIAEGKDPLEGQRHCCGIAQMHEHSSLGHADLDALQQNPQPLIFHIEMLKVESPGTYQQDPWAMTDEEKAKAVPVIHQEGNRLYREGQVKEAAAKYYDAIACLKNLQMKEQPGSPDWIQLDLQITPLLLNYCQCKLVAQEYYEVLDHCSSILNKYDDNVKAYFKRGKAHAAVWNAQEAQADFAKVLELDPALAPVVSRELRALETRIRQKDEEDKARFRGIFSH
